No constants are given. Whether binding was seen depends on the method and setting. Some results given as binding are weak or reduced against the parent protein; the word gives no strength.
How the values were obtained:
[1] = biological target: T1, TREM-1 (triggering receptor expressed on myeloid cells-1) on murine J774A.1 macrophages (mouse) (UniProt Q9JKE2); assay: confocal immunofluorescence on J774 macrophages, labelled peptide against TREM-1 immunostaining; colocalisation only, no direct binding assay
T1 sequence (looked up): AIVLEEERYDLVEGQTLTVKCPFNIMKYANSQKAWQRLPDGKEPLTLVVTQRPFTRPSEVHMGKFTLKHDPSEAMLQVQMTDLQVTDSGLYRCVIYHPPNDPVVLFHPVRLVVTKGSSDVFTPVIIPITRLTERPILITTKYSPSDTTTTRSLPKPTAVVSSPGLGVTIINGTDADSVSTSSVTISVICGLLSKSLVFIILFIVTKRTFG

[2] = biological target: T1, TREM-1 (triggering receptor expressed on myeloid cells-1) on murine J774A.1 macrophages (mouse); assay: confocal immunofluorescence on J774A.1 macrophages; DyLight 488-labelled G-KV21 pre-incubated with HDL against Alexa 647 rat anti-mouse TREM-1 antibody; colocalisation only, no direct binding assay

GFLSKSLVFWQEEMELYRQKV (sulfoxidized methionine residue (the single Met))
binding [1]: binds | binding [2]: binds
